From article PMC8764063 come the findings set out here.

Chains of the proteins cited; added tags and fusions are not shown. Lines headed by an entry give the natural chain unless they say otherwise; changes in a name come on top. A line that says so, or that is headed by a name, gives the form on record, which may keep a tag or linker.
UniProt P09874: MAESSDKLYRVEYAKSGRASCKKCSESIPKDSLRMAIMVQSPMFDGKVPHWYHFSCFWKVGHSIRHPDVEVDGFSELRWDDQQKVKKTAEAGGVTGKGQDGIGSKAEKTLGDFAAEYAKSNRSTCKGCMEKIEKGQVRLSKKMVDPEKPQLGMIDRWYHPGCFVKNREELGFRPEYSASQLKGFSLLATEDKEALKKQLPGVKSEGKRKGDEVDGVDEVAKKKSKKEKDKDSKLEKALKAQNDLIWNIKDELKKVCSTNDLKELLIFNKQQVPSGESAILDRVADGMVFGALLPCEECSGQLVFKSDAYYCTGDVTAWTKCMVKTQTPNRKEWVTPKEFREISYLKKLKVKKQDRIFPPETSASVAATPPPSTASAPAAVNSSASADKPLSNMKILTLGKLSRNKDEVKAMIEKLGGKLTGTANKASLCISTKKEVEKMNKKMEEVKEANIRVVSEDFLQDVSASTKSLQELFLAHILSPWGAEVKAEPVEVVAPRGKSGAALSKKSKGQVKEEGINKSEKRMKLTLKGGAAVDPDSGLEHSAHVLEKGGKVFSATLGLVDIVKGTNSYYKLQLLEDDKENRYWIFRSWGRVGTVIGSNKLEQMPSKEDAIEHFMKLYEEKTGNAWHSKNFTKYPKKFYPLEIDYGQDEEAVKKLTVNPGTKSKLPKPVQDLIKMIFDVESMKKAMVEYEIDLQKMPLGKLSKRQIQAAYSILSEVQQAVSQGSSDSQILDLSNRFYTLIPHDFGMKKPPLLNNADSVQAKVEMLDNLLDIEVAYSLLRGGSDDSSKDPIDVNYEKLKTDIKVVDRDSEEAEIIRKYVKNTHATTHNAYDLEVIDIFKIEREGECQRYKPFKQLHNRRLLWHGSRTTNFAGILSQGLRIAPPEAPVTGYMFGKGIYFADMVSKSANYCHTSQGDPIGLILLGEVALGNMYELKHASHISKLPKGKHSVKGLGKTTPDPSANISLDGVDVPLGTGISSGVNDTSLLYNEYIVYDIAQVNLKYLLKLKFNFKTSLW
SFB-tagged mutant tPARP1 (SFB-tPARP1 E988A) (P09874, form named): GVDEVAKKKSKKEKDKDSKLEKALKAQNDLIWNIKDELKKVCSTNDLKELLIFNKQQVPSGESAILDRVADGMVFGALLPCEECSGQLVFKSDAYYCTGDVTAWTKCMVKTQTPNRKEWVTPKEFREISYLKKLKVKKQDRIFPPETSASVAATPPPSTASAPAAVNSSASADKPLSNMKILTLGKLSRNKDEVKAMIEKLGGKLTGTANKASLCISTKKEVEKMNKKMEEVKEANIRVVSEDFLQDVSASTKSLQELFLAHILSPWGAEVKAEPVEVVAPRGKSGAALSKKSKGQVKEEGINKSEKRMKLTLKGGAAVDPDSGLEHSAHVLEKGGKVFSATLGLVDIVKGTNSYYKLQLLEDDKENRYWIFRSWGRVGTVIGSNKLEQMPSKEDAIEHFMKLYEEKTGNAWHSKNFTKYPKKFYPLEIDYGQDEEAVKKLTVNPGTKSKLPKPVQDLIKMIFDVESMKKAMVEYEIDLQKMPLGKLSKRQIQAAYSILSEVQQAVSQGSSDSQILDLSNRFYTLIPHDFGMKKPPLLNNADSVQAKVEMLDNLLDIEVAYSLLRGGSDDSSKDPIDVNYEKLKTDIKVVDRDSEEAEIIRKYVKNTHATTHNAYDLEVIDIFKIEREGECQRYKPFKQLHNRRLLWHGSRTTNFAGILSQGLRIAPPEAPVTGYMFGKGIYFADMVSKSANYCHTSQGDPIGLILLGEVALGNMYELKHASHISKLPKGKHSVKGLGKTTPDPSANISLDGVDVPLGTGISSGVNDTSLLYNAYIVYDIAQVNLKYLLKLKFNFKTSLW
UniProt Q9Y530: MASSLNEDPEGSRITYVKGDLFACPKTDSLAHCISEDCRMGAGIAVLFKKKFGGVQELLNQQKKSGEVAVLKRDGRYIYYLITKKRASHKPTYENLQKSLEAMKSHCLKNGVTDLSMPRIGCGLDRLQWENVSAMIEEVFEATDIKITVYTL
UniProt O14802: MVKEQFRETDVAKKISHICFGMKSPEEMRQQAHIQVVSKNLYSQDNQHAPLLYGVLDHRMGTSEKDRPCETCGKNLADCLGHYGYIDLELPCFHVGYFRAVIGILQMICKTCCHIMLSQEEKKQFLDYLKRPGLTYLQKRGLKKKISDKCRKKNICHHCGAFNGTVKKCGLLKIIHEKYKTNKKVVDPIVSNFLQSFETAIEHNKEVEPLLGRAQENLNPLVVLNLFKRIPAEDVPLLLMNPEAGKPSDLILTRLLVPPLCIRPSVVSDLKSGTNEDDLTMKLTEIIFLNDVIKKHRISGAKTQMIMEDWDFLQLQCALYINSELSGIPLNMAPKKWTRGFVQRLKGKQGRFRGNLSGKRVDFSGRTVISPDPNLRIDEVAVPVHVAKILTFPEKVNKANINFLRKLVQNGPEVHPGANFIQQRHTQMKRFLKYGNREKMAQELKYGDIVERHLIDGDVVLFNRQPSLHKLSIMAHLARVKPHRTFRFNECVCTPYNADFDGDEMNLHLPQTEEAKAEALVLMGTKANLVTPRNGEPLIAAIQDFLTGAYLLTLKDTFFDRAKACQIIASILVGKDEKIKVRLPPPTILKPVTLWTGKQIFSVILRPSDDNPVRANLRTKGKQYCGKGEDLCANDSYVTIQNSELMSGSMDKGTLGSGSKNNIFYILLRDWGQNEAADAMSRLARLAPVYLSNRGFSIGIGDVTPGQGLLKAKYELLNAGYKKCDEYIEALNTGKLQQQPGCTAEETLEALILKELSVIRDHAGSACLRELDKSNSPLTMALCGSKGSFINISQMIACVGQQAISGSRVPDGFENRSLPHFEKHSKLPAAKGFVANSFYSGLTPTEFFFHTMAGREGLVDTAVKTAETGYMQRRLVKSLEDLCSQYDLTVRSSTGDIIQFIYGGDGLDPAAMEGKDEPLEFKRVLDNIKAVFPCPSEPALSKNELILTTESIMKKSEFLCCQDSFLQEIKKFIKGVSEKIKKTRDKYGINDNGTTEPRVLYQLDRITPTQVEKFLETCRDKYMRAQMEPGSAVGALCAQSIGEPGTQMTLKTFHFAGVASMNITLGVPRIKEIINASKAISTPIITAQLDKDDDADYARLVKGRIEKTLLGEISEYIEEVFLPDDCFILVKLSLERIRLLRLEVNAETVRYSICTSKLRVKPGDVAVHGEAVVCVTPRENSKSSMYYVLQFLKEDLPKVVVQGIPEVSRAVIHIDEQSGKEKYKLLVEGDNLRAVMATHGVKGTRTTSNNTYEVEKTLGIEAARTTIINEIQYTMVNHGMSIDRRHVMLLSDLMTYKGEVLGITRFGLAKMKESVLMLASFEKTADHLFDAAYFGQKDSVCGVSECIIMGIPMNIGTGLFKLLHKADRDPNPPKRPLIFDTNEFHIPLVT
UniProt Q9H1D9: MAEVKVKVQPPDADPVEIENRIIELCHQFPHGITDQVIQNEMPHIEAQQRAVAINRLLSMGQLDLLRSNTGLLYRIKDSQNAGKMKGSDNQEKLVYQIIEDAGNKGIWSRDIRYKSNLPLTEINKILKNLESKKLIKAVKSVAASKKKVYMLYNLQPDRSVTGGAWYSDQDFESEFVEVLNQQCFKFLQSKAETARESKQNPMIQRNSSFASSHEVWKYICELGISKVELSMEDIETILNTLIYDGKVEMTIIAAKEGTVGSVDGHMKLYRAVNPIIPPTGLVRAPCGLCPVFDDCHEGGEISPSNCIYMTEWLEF
UniProt Q9NW08: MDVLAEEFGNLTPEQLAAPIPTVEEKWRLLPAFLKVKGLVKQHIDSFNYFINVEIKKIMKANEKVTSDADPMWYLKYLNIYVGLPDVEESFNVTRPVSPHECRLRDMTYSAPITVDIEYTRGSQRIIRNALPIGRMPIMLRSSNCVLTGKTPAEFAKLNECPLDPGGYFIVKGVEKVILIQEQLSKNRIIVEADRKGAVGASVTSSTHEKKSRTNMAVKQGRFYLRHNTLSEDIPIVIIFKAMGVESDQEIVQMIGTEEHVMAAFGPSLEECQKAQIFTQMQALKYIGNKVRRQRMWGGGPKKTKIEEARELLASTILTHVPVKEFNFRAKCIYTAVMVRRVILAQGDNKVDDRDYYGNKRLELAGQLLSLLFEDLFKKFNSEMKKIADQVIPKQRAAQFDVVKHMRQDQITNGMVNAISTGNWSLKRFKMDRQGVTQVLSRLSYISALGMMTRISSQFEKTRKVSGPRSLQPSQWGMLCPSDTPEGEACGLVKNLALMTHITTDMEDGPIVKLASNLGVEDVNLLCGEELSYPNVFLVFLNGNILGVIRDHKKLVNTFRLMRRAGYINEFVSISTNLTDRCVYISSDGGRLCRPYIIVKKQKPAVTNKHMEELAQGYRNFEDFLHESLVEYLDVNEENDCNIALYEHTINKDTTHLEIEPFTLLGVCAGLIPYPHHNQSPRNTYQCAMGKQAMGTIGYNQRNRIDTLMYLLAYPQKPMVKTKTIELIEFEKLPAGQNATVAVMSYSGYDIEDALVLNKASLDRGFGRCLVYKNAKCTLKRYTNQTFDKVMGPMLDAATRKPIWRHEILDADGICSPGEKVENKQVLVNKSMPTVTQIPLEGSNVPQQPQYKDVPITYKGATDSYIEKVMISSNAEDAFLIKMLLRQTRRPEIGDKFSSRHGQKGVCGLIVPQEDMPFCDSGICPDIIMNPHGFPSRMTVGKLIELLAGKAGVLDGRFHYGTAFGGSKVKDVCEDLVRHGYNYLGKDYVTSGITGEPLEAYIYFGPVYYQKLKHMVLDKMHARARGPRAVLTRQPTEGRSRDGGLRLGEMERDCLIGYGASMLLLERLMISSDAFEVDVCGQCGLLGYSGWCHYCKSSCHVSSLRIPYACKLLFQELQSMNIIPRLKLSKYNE

Results are given in words; binding and its absence hold for the method and conditions named. Binding seen in cells or lysates may run through a third protein. A yes stands for co-enrichment or nearness to the bait. Other partners may have been found. For part of these data: A no says only that the protein was not detected with the bait. For part of these data: Tags and fused reporters may be left off the sequences shown.

Assay in all cases: affinity purification with mass spectrometry; SFB-tagged bait stably expressed in 293T cells; NETN100 lysate, soluble fraction; streptavidin beads 2 h at 4 °C, biotin elution, S-beads 2 h at 4 °C, four washes; SDS-PAGE, in-gel trypsin digestion, LC-MS/MS
For assay [1], the target named is T1, SFB-tagged mutant PARG (SFB-PARG E756A) (UniProt Q86W56).
T1 sequence: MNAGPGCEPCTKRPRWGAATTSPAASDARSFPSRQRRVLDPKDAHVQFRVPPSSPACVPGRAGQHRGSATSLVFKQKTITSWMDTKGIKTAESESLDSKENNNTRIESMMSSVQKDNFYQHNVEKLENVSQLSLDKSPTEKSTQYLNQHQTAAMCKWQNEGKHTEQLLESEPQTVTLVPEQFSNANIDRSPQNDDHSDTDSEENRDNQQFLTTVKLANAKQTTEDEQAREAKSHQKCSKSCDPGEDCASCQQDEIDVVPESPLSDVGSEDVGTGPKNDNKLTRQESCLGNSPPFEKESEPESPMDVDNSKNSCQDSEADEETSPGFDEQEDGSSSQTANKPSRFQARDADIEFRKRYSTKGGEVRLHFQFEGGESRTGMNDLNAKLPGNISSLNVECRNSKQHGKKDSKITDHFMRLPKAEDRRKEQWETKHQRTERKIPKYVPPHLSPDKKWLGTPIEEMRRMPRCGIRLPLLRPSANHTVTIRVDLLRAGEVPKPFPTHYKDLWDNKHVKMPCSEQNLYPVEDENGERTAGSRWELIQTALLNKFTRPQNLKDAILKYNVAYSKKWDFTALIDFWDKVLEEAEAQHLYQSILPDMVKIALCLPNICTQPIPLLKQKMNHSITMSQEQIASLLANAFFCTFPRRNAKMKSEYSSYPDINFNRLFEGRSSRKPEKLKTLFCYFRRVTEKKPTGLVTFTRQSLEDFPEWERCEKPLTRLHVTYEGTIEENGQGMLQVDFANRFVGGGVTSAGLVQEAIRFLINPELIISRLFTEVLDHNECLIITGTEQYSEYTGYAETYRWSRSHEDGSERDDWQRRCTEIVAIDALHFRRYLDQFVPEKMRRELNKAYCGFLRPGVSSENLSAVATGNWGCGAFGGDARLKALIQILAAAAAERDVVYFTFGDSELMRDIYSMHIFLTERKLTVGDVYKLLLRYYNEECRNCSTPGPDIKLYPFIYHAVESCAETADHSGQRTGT

For assay [2], the target named is SFB-tagged mutant PARP1 (SFB-PARP1 E988A) (human) (UniProt P09874).
Assay [3] has as its target SFB-tagged mutant TARG1 (SFB-TARG1 D125A) (UniProt Q9Y530).
In assay [4] the target is SFB-tagged mutant tPARP1 (SFB-tPARP1 E988A) (human) (UniProt P09874).

Consider “POLR3A, subunit of the RNA polymerase III (Pol III) complex, endogenous (from UniProt O14802 1-1390)”, for which the binding result in assay [1] is “no binding”; in assay [2] it was “no binding”; in assay [3] it was “binds”; in assay [4], “binds”.
Turning to “POLR3F, subunit of the RNA polymerase III (Pol III) complex, endogenous (from UniProt Q9H1D9 1-316)”, the binding result in assay [1] was “no binding”; in assay [2], “no binding”; in assay [3], “binds”; in assay [4] it was “binds”.
Turning to “POLR3B, subunit of the RNA polymerase III (Pol III) complex, endogenous (from UniProt Q9NW08 1-1133)”, the binding entry was “no binding” in assay [1], “no binding” in assay [2], “binds” in assay [3] and “binds” in assay [4].
